We go through one compound from patent US11744787B2, “Menthol-containing aroma preparations” (Symrise AG, priority 2016, dated 2023).

Structures are written as SMILES.

A short description of this data set: Sensory evaluation of the taste profile of aroma mixtures by a panel of 5 trained testers. In kind it is in vivo. Particulars: 0.5% by weight in unsweetened, unflavored standard chewing sweet preparation; rating (5)=is very true to (0)=is largely untrue; mean values of 5 trained testers. The protocol:
The taste profile of various aroma mixtures was assessed by a panel consisting of 5 trained testers. To that end, the mixtures were incorporated in an amount of 0.5% by weight into an unsweetened and unflavored standard chewing sweet preparation. The evaluation was made according to the rating (5)=is very true to (0)=is largely untrue. The mean values are given.

With `C=CCc1ccc(O)c(OC)c1` [Example C1, 4-Allyl-2-methoxyphenol], the Burning taste was 4.5, the Painful sensation was 3.0 and the Warm-spicy taste is 4.2.
